± gives the standard deviation of the averaged measurements. The list shows a part of the results.
The compounds below were run on APPdp1-6 iPSC-derived neurons (assay: pThr231Tau/total Tau ratio Z-score vs DMSO vehicle wells; higher = more pThr231Tau relative to total Tau). Conditions: 5 µM; treatment time 5 days.
`CC(=O)Oc1ccc2c(c1)CC[C@@H]1[C@@H]2CC[C@]2(C)[C@@H](O)CC[C@@H]12` [ESTRADIOL ACETATE    Therap cat: estrogen] was tested, and the “pThr231Tau/total Tau ratio Z-score” value was 0.0748 ± 1.2.
`COc1ccc(C(Cl)=C(c2ccc(OC)cc2)c2ccc(OC)cc2)cc1` [Prestw-757] was tested, and the “pThr231Tau/total Tau ratio Z-score” value was -0.738 ± 0.076.
`Cc1oncc1C(=O)Nc1ccc(C(F)(F)F)cc1` [Prestw-772] was tested, and the “pThr231Tau/total Tau ratio Z-score” value was 0.285 ± 0.1.
With `CC1CC(OC(=O)C(O)c2ccccc2)CC(C)(C)C1` (stereo unspecified) the “pThr231Tau/total Tau ratio Z-score” value was -0.466 ± 1.2.
In the case of `CCOC(=O)[C@H](CCc1ccccc1)N[C@@H](C)C(=O)N1Cc2ccccc2C[C@H]1C(=O)O` [Prestw-927], the “pThr231Tau/total Tau ratio Z-score” value is reported as -0.78 ± 0.15.
With `CC(CCc1ccccc1)NCC(O)c1ccc(O)c(C(N)=O)c1` (stereo unspecified) [Prestw-277] the “pThr231Tau/total Tau ratio Z-score” value was -0.537 ± 0.28.
In the case of `Cc1onc(-c2c(Cl)cccc2Cl)c1C(=O)N[C@@H]1C(=O)N2[C@@H]1SC(C)(C)[C@@H]2C(=O)O` [Prestw-450], the “pThr231Tau/total Tau ratio Z-score” value is reported as 2.32 ± 0.43.
For `CN1C(C)(C)CCCC1(C)C` [Prestw-683], the “pThr231Tau/total Tau ratio Z-score” value was 0.629 ± 0.2.
In the case of `CC[N+](C)(C)Cc1ccccc1Br` [Prestw-942], the “pThr231Tau/total Tau ratio Z-score” value is reported as -0.264 ± 0.26.
With `C[N+](C)(C)CCCCCC[N+](C)(C)C` [Prestw-38] the “pThr231Tau/total Tau ratio Z-score” value was 0.475 ± 0.89.
In the case of `Cc1cc2c(cc1S(N)(=O)=O)S(=O)(=O)CCC2` [Prestw-11], the “pThr231Tau/total Tau ratio Z-score” value is reported as -0.243 ± 0.28.
For `Clc1cnccn1` [Prestw-1087], the “pThr231Tau/total Tau ratio Z-score” value was 0.00912 ± 1.1.
In the case of `NCCNCCNCCNCCN` [Prestw-1387], the “pThr231Tau/total Tau ratio Z-score” value is reported as -1.07 ± 0.24.
`NC(=O)c1cc[n+](CC2=C(C(=O)O)N3C(=O)[C@@H](NC(=O)[C@@H](c4ccccc4)S(=O)(=O)[O-])[C@H]3SC2)cc1` [Prestw-814] was tested, and the “pThr231Tau/total Tau ratio Z-score” value was 6.74 ± 9.
`CC1(C)S[C@@H]2[C@H](NC(=O)[C@H](NC(=O)N3CCNC3=O)c3ccccc3)C(=O)N2[C@H]1C(=O)O` [Prestw-821] was tested, and the “pThr231Tau/total Tau ratio Z-score” value was -0.444 ± 0.77.
With `CCCCCCc1ccc(O)cc1O.Nc1c2ccccc2nc2ccccc12` [ACRISORCIN    Therap cat: antifungal] the “pThr231Tau/total Tau ratio Z-score” value was -0.0748 ± 0.49.
With `Nc1nc(Cl)nc2c1ncn2[C@H]1C[C@H](O)[C@@H](CO)O1` [Prestw-1484] the “pThr231Tau/total Tau ratio Z-score” value was -0.407 ± 1.2.
In the case of `CN[C@@H]1[C@H](O[C@H]2[C@H](O[C@H]3[C@H](O)[C@@H](O)[C@H](N=C(N)N)[C@@H](O)[C@@H]3N=C(N)N)O[C@@H](C)[C@]2(O)C=O)O[C@@H](CO)[C@H](O)[C@H]1O` [Prestw-321], the “pThr231Tau/total Tau ratio Z-score” value is reported as -0.625 ± 0.74.
`Cc1cccc(C(=O)O)c1O` [3-Cresotinic acid] was tested, and the “pThr231Tau/total Tau ratio Z-score” value was -1 ± 1.2.
With `O=C1OC2(C3=C[C](Br)C([O-])=C=C3Oc3cc([O-])c(Br)cc32)c2ccccc21.[Hg+].[Na+].[Na+].[OH-]` (stereo unspecified) [MERBROMIN    Therap cat:  Antibacterial] the “pThr231Tau/total Tau ratio Z-score” value was -1.18 ± 0.27.
In the case of `OCCOCCN1CCN(C2=Nc3ccccc3Sc3ccccc32)CC1` [Prestw-1323], the “pThr231Tau/total Tau ratio Z-score” value is reported as -0.436 ± 0.22.

— the supplement of paper PMC6414424
